Data reported in US20050074865A1.
Results are given in words; binding and its absence hold for the method and conditions named. Some binding calls cover weakened binding; strength is not graded here. Tags and fused reporters may be left off the sequences shown.

Sequences of proteins named here, by UniProt entry; tags and fusion partners are left off. Residues count along the entry.
UniProt P01375, residues 77-233: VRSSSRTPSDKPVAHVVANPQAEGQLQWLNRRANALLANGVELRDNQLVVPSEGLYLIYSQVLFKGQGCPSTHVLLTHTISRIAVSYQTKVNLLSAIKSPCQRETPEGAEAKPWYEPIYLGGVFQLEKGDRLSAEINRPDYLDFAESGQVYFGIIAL

Legend:
[1] = target: S-TNF, human TNFα fusion protein with an N-terminal S-Tag (human) (UniProt P01375); assay: legend of FIG. 11 (indirect ELISA with S-TNF)
[2] = target: S-TNF, human TNFα fusion protein with an N-terminal S-Tag (human) (UniProt P01375); assay: indirect ELISA: sp55 captured on Ni-NTA wells, S-TNF detected with S-protein-HRP
[3] = target: S-TNF, human TNFα fusion protein with an N-terminal S-Tag (human) (UniProt P01375); assay: indirect ELISA: sp55 from conditioned medium captured on Ni-NTA wells, S-TNF at 1 ug/mL, detection with S-protein HRP and TMB, OD 370 nm

Measured: binding

B1: sp55, full-length ecto-domain of human TNFR-1 (residues 30-211) with C-terminal myc and His6 tags, expressed from pSecTag2A (receptor)
chain: DAAQPARRAVRSLVPHLGDREKRDSVCPQGKYIHPQNNSICCTKCHKGTYLYNDCPGPGQDTDCRECESGSFTASENHLRHCLSCSKCRKEMGQVEISSCTVDRDTVCGCRKNQYRHYWSENLFQCFNCSLCLNGTVHLSCQEKQNTVCTCHAGFFLRENECVSCSNCKKSLECTKLCLPQIENVKGTEDSGTTRGGPEQKLISEEDLNSAVDHHHHHH
binds: all assays above
